# Reference: patent US20040106773A1 (priority 2003, published 2004)
# Chains of the proteins cited; added tags and fusions are not shown. Residues count along the entry.
# UniProt P70555, 25-546: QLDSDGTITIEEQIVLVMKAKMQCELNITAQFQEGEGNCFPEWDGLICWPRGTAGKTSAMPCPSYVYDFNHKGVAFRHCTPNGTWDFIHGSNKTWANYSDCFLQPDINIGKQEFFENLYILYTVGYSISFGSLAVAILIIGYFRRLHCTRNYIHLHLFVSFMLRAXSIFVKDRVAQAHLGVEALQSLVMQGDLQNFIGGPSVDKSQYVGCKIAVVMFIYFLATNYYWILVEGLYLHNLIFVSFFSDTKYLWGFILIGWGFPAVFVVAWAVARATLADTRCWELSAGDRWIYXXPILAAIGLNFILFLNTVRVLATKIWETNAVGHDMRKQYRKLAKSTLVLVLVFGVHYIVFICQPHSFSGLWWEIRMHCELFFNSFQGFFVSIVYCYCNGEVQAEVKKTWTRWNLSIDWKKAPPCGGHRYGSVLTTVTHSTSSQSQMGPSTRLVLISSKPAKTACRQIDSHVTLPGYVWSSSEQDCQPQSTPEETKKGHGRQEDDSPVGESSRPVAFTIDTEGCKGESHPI
# Some entries share one result that the patent states for a list of compounds.
# Target: T1, rat PTH2R (Rattus norvegicus, UniProt P70555)
# T1 construct: V5-His (appears only in the vector name); expressed in transfected cells
# Assay: cAMP SPA assay for PTH2R activation, rat PTH2R
# Type: cell-based
# Details: HEK293 cells expressing rat PTH2R
# From the text: HEK293 cells were transfected with rat and human PTH2R and cell lines that stably express the receptors were established and evaluated. One cell line was selected for each rat and human PTH2R and used for all the functional assays. Specifically, HEK293 cells were transfected with pCDNA3.1/V5-His-RatPTH2R plasmid DNA and pCDNA3.1-E/Uni-lacZ-HumanPTH2R plasmid DNA using FuGENE 6 transfection reagent (Roche Molecular Biochemicals). Three days after transfection, cells were put under selection with 800 μg/ml geneticin (G418, Gibco BRL). After three weeks of selection, single colonies were cloned using cloning cylinders. Cloned colonies were scaled up to T25 flasks. More than 10 cell lines for each plasmid were tested for function in the cAMP SPA assay.
# HEK293PTH2R cells were seeded in a 96-well poly-D-lysine coated plate at 100,000 cells per well and cultured overnight. After washing with 200 μl of PBS and treating with 100 μl of 300 nM IBMX in assay medium (MEM without phenol red and FBS) at 37° C. for 10 min. The assay medium was then aspirated and the cells were washed with PBS. The cellular of cAMP was measured using cAMP SPA Direct Screening (Amersham/Pharmacia RPA559). Each concentration of ligand was repeated as triplicate.
substance,measurement,value
human PTH(1-34),maximal level of cAMP,"up to 29 pmol/100,000 cells"
